Values of other authors, collected in patent US11826369B2, “Targeting the TLK1/NEK1 axis in prostate cancer” (Board of Supervisors of Louisiana State University and …, priority 2019, dated 2023).

Molecular target: recombinant human dopamine receptors (D1 and D3)
Conditions: competitive studies with recombinant receptors; cited from earlier work

SMILES: CSc1ccc2c(c1)N(CCC1CCCCN1C)c1ccccc1S2 (stereo not shown) [THD, Thioridazine]
- IC50: 20 nM
